By UniProt entry, the sequences of proteins in these tests, tags left out. Where a name states a change or a piece, a line headed by the entry shows the natural chain unless it says otherwise.
UniProt P22147: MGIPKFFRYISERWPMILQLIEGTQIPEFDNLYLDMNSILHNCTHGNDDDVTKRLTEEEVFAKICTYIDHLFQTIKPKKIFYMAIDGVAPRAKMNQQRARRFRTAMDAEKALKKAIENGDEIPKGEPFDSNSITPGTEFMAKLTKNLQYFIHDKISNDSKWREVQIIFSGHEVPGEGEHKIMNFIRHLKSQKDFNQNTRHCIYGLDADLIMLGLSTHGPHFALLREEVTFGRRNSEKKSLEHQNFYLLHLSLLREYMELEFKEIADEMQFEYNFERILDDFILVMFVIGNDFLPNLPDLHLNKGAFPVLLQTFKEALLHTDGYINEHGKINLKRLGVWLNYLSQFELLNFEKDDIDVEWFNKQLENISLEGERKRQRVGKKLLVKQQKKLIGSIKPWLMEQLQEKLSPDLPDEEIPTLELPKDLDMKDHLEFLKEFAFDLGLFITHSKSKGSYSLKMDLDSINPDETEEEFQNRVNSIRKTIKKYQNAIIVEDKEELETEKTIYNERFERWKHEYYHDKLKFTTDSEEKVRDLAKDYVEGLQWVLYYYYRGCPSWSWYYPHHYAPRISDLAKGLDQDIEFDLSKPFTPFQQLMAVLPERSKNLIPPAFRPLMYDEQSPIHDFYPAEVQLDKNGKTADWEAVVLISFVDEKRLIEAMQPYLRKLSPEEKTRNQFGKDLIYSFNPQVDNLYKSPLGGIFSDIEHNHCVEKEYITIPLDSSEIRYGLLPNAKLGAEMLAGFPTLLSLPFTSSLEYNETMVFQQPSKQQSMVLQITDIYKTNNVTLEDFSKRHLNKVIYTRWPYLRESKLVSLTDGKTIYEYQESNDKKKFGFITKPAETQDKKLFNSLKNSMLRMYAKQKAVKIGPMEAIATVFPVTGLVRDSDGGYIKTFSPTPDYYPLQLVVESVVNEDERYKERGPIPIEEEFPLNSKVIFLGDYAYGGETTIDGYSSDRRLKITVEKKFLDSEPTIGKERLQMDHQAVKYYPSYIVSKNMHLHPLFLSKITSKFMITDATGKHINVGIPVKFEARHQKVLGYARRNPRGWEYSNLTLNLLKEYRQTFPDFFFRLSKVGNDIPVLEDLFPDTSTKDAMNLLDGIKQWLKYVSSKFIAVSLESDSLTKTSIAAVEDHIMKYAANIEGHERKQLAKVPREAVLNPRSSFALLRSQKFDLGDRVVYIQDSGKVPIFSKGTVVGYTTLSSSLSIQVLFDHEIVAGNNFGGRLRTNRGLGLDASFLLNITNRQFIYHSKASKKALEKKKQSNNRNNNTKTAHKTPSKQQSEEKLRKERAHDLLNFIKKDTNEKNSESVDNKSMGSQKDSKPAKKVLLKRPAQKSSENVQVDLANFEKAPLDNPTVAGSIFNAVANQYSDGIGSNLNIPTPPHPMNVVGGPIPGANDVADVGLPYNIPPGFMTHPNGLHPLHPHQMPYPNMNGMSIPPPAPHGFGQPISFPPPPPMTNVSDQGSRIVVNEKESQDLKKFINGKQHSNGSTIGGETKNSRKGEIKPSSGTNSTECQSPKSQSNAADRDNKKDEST

In paper PMC10681259:

T1: eIF2A-TAP (S. cerevisiae) (UniProt P53235)
T1 sequence: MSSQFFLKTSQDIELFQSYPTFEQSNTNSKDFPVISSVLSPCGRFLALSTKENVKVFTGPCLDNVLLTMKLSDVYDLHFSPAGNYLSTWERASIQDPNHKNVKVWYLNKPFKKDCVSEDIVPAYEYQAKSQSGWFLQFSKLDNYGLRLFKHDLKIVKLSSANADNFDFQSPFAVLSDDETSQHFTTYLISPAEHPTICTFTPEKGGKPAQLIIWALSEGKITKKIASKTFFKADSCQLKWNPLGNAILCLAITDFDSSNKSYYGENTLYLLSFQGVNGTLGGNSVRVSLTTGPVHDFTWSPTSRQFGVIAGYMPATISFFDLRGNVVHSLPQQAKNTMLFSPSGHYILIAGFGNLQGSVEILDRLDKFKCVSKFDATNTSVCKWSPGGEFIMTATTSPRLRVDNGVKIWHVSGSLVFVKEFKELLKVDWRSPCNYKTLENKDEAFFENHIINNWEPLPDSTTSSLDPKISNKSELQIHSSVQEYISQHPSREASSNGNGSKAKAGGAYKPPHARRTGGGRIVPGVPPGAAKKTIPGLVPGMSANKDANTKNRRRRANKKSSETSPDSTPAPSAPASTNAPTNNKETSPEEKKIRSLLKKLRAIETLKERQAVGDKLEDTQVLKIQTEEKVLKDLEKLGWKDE

B1: Edc3 (protein, UniProt P39998 1-551)
chain: MSQFVGFGVQVELKDGKLIQGKIAKATSKGLTLNDVQFGDGGKSQAFKVRASRLKDLKVLTVASQSGKRKQQRQQQQQNDYNQNRGEHIDWQDDDVSKIKQQEDFDFQRNLGMFNKKDVFAQLKQNDDILPENRLQGHNRKQTQLQQNNYQNDELVIPDAKKDSWNKISSRNEQSTHQSQPQQDAQDDLVLEDDEHEYDVDDIDDPKYLPITQSLNITHLIHSATNSPSINDKTKGTVINDKDQVLAKLGQMIISQSRSNSTSLPAANKQTTIRSKNTKQNIPMATPVQLLEMESITSEFFSINSAGLLENFAVNASFFLKQKLGGRARLRLQNSNPEPLVVILASDSNRSGAKALALGRHLCQTGHIRVITLFTCSQNELQDSMVKKQTDIYKKCGGKIVNSVSSLESAMETLNSPVEIVIDAMQGYDCTLSDLAGTSEVIESRIKSMISWCNKQRGSTKVWSLDIPNGFDAGSGMPDIFFSDRIEATGIICSGWPLIAINNLIANLPSLEDAVLIDIGIPQGAYSQRTSLRKFQNCDLFVTDGSLLLDL
B2: Pby1 (protein, UniProt P38254 1-753)
chain: MRVLITNDDGPLSDQFSPYIRPFIQHIKRNYPEWKITVCVPHVQKSWVGKAHLAGKNLTAQFIYSKVDAEDNTFWGPFIQPQIRSENSKLPYVLNAEIPKDTIEWILIDGTPASCANIGLHLLSNEPFDLVLSGPNVGRNTSAAYITSSGTVGGAMESVITGNTKAIAISWAYFNGLKNVSPLLMEKASKRSLDVIKHLVKNWDPKTDLYSINIPLVESLSDDTKVYYAPIWENRWIPIFNGPHINLENSFAEIEDGNESSSISFNWAPKFGAHKDSIHYMDEYKDRTVLTDAEVIESEMISVTPMKATFKGVNHLLGELKLTEEENNLSKTNNLIVVSIDPMEYIYKPLTHALKKYLPQVEIVSNLPEFDNGGCEKEMKVFHYGDYEQLDMDKLMELPNNYFTNSYIYRKALIRKHFLSHTIQTYTAKNPESILKKAYLESFTIDLDYAEFLDDALDENWELRQELENESQDKWWIVKPSMSDKGQGIRVFKTIEDLQAIFDSFDDEDSEAEESGNDDDADDVNGEFMDNNKVNISQLRHFIIQEYLTNPLLLASMDNRKFHIRCYVVCRGDLQVFVYDRMLALFAAKPFVPLDPYAYSVTDLKDLECHLTNTCLQSKKKDKDSSVLEFDSIEEIPNERKSNIKEQIHSITNDVFLAAVNVNRLNFQPLPNAFETYGVDFLIDSNYEVKLLEINAFPDFKQTGKDLKNLIDELFDDTVKYCVTPIFNENRNKTDDETDPNFVKVIDYTSNGW
B3: Pat1 (protein, UniProt P25644 1-796)
chain: MSFFGLENSGNARDGPLDFEESYKGYGEHELEENDYLNDETFGDNVQVGTDFDFGNPHSSGSSGNAIGGNGVGATARSYVAATAEGISGPRTDGTAAAGPLDLKPMESLWSTAPPPAMAPSPQSTMAPAPAPQQMAPLQPILSMQDLERQQRQMQQQFMNFHAMGHPQGLPQGPPQQQFPMQPASGQPGPSQFAPPPPPPGVNVNMNQMPMGPVQVPVQASPSPIGMSNTPSPGPVVGATKMPLQSGRRSKRDLSPEEQRRLQIRHAKVEKILKYSGLMTPRDKDFITRYQLSQIVTEDPYNEDFYFQVYKIIQRGGITSESNKGLIARAYLEHSGHRLGGRYKRTDIALQRMQSQVEKAVTVAKERPSKLKDQQAAAGNSSQDNKQANTVLGKISSTLNSKNPRRQLQIPRQQPSDPDALKDVTDSLTNVDLASSGSSSTGSSAAAVASKQRRRSSYAFNNGNGATNLNKSGGKKFILELIETVYEEILDLEANLRNGQQTDSTAMWEALHIDDSSYDVNPFISMLSFDKGIKIMPRIFNFLDKQQKLKILQKIFNELSHLQIIILSSYKTTPKPTLTQLKKVDLFQMIILKIIVSFLSNNSNFIEIMGLLLQLIRNNNVSFLTTSKIGLNLITILISRAALIKQDSSRSNILSSPEISTWNEIYDKLFTSLESKIQLIFPPREYNDHIMRLQNDKFMDEAYIWQFLASLALSGKLNHQRIIIDEVRDEIFATINEAETLQKKEKELSVLPQRSQELDTELKSIIYNKEKLYQDLNLFLNVMGLVYRDGEISELK
B4: Dcp1 (protein, UniProt Q12517 1-231)
chain: MTGAATAAENSATQLEFYRKALNFNVIGRYDPKIKQLLFHTPHASLYKWDFKKDEWNKLEYQGVLAIYLRDVSQNTNLLPVSPQEVDIFDSQNGSNNIQVNNGSDNSNRNSSGNGNSYKSNDSLTYNCGKTLSGKDIYNYGLIILNRINPDNFSMGIVPNSVVNKRKVFNAEEDTLNPLECMGVEVKDELVIIKNLKHEVYGIWIHTVSDRQNIYELIKYLLENEPKDSFA
B5: Dcp2 (enzyme, UniProt P53550 1-970)
chain: MSLPLRHALENVTSVDRILEDLLVRFIINCPNEDLSSVERELFHFEEASWFYTDFIKLMNPTLPSLKIKSFAQLIIKLCPLVWKWDIRVDEALQQFSKYKKSIPVRGAAIFNENLSKILLVQGTESDSWSFPRGKISKDENDIDCCIREVKEEIGFDLTDYIDDNQFIERNIQGKNYKIFLISGVSEVFNFKPQVRNEIDKIEWFDFKKISKTMYKSNIKYYLINSMMRPLSMWLRHQRQIKNEDQLKSYAEEQLKLLLGITKEEQIDPGRELLNMLHTAVQANSNNNAVSNGQVPSSQELQHLKEQSGEHNQQKDQQSSFSSQQQPSIFPSLSEPFANNKNVIPPTMPMANVFMSNPQLFATMNGQPFAPFPFMLPLTNNSNSANPIPTPVPPNFNAPPNPMAFGVPNMHNLSGPAVSQPFSLPPAPLPRDSGYSSSSPGQLLDILNSKKPDSNVQSSKKPKLKILQRGTDLNSIKQNNNDETAHSNSQALLDLLKKPTSSQKIHASKPDTSFLPNDSVSGIQDAEYEDFESSSDEEVETARDERNSLNVDIGVNVMPSEKDSRRSQKEKPRNDASKTNLNASAESNSVEWGPGKSSPSTQSKQNSSVGMQNKYRQEIHIGDSDAYEVFESSSDEEDGKKLEELEQTQDNSKLISQDILKENNFQDGEVPHRDMPTESNKSINETVGLSSTTNTVKKVPKVKILKRGETFASLANDKKAFDSSSNVSSSKDLLQMLRNPISSTVSSNQQSPKSQHLSGDEEIMMMLKRNSVSKPQNSEENASTSSINDANASELLGMLKQKEKDITAPKQPYNVDSYSQKNSAKGLLNILKKNDSTGYPRTEGGPSSEMSTSMKRNDATNNQELDKNSTELLNYLKPKPLNDGYENISNKDSSHELLNILHGNKNSSAFNNNVYATDGYSLASDNNENSSNKLLNMLQNRSSAINEPNFDVRSNGTSGSNELLSILHRK

Target: T1, eIF2A-TAP (S. cerevisiae)
Assay: affinity purification with mass spectrometry; eIF2A-TAP as bait on IgG-coupled magnetic beads, lysate of a strain with Xrn1 D206A; 20mM Hepes pH 7.4, 10mM MgCl2, 100mM KOAc, 0.5% Triton, 2 hours at 4°C; SDS elution; label-free quantitative LC-MS/MS, six independent experiments

binding | Molecule
binds | Xrn1 (D206A), 5’-3’ exonuclease (from UniProt P22147 1-1528) (enzyme)
binds | Ska1
binds | B1
binds | B2
binds | B3
binds | B4
binds | B5

Results are given in words; binding and its absence hold for the method and conditions named. In cells and extracts the contact can be indirect. These calls come from enrichment with a bait or labelling near it, and not all partners need be listed.
